The supplement of paper PMC10849652
The list shows a part of the results.

Sequences of proteins named here, by UniProt entry; tags and fusion partners are left off. A change or cut given only in a name is not applied to a line headed by its entry.
UniProt Q9BXL5: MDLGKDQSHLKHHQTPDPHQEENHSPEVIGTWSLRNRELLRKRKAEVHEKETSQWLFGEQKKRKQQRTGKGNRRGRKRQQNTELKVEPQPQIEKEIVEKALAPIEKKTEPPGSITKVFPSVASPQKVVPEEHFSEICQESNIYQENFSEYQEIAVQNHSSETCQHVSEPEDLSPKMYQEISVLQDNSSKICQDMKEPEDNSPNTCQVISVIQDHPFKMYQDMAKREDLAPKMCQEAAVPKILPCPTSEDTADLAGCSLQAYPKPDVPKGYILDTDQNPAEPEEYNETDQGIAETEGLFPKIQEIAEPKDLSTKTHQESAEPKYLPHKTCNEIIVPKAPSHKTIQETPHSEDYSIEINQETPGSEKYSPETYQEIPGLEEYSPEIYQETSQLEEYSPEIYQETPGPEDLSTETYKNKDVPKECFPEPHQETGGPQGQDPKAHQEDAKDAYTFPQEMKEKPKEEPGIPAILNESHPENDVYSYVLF
UniProt Q9Y3E1: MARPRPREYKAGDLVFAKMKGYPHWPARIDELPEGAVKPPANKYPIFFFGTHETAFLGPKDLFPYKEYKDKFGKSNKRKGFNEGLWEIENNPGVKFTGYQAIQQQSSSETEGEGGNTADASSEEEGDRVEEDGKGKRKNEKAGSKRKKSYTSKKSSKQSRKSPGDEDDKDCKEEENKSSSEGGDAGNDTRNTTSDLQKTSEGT
UniProt Q16774: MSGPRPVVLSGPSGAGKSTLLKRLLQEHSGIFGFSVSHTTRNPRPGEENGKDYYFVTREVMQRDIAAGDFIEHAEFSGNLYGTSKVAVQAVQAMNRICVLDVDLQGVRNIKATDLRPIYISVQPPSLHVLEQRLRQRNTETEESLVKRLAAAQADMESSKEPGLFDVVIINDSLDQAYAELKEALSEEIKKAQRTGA
UniProt Q9H6D7: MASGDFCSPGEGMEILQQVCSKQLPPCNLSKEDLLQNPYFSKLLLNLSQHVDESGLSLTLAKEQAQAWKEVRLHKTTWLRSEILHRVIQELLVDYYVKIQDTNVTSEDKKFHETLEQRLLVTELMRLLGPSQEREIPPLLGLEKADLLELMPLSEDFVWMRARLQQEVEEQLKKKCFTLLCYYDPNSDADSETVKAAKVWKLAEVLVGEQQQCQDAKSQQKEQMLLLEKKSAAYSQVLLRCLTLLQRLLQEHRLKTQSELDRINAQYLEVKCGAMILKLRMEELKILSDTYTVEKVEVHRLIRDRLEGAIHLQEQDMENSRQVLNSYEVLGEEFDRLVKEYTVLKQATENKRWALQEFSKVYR
UniProt Q9UKN8: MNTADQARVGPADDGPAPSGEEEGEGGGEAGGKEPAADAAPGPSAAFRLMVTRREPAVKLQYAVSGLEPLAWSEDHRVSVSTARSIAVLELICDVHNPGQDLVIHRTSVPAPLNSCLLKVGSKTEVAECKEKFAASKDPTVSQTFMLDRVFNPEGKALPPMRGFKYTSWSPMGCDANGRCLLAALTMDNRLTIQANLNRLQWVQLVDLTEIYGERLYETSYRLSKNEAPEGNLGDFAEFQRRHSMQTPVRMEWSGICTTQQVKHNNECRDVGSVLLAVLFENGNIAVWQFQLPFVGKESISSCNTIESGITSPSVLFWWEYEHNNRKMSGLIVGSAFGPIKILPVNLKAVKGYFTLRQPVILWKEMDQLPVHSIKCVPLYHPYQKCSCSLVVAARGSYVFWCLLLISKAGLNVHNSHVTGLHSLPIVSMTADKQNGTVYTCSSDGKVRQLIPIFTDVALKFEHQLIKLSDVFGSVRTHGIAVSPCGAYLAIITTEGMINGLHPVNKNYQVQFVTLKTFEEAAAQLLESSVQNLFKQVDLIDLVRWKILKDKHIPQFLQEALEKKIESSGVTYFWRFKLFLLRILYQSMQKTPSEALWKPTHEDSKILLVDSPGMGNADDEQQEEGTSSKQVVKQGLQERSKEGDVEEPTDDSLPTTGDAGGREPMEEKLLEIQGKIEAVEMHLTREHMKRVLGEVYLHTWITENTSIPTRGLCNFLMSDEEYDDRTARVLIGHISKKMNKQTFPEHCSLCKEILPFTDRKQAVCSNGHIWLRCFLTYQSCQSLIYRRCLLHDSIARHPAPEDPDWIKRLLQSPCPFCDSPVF
UniProt Q8IYD1, whole entry, looked up: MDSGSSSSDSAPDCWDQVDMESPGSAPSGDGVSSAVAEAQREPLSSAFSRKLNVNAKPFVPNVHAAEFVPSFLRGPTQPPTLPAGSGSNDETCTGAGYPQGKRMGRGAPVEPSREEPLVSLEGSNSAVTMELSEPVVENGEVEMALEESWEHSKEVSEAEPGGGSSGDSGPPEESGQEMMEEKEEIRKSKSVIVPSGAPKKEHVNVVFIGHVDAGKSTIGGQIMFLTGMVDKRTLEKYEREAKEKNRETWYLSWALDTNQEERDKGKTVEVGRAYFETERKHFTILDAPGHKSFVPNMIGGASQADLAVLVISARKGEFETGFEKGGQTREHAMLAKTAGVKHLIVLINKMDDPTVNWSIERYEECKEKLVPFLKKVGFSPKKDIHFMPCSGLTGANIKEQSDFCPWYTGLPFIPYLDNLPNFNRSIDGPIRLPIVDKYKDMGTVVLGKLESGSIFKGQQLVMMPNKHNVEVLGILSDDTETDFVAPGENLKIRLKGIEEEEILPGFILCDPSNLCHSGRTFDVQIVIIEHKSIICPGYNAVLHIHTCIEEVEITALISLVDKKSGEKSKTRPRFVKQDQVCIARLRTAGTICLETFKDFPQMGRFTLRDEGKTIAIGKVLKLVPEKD
UniProt Q6PII5: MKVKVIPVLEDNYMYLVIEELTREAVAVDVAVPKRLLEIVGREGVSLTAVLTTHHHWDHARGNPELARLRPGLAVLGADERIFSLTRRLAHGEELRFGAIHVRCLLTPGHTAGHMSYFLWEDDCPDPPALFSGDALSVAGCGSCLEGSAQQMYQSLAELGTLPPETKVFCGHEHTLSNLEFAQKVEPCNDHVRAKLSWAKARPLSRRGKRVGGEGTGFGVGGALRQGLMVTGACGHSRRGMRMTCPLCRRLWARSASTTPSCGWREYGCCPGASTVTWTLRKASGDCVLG
UniProt Q9NRV9: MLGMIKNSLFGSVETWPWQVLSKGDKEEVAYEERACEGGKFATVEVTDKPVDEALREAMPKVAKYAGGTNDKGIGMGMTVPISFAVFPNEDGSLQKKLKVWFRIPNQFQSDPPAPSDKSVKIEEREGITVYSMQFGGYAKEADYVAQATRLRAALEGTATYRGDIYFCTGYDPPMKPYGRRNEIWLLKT
UniProt O15379: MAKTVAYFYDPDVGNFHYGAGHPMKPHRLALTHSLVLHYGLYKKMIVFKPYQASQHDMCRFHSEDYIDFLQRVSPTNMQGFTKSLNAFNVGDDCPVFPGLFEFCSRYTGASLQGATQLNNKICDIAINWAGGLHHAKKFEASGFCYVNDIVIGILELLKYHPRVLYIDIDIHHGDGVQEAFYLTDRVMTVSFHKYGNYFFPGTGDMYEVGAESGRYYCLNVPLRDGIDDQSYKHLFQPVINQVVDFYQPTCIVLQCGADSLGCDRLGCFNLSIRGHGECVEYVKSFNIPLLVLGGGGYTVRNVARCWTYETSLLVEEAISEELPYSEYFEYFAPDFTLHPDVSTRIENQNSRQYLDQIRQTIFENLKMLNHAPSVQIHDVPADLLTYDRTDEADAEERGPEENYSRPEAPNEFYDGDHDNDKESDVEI
UniProt P04921: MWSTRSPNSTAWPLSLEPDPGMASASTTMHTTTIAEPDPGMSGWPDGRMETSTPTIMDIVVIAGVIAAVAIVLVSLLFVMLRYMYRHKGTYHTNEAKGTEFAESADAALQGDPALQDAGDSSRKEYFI
UniProt O14929: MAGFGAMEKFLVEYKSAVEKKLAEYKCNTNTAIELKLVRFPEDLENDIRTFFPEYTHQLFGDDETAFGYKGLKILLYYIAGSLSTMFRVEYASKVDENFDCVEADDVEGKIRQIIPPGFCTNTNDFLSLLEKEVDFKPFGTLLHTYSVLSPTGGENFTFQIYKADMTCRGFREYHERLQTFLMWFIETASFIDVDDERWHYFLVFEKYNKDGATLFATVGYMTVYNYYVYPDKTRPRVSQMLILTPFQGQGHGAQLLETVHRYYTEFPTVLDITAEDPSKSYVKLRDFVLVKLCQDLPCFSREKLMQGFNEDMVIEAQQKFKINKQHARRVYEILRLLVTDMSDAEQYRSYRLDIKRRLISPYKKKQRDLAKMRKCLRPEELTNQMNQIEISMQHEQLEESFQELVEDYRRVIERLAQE
UniProt Q6AI08: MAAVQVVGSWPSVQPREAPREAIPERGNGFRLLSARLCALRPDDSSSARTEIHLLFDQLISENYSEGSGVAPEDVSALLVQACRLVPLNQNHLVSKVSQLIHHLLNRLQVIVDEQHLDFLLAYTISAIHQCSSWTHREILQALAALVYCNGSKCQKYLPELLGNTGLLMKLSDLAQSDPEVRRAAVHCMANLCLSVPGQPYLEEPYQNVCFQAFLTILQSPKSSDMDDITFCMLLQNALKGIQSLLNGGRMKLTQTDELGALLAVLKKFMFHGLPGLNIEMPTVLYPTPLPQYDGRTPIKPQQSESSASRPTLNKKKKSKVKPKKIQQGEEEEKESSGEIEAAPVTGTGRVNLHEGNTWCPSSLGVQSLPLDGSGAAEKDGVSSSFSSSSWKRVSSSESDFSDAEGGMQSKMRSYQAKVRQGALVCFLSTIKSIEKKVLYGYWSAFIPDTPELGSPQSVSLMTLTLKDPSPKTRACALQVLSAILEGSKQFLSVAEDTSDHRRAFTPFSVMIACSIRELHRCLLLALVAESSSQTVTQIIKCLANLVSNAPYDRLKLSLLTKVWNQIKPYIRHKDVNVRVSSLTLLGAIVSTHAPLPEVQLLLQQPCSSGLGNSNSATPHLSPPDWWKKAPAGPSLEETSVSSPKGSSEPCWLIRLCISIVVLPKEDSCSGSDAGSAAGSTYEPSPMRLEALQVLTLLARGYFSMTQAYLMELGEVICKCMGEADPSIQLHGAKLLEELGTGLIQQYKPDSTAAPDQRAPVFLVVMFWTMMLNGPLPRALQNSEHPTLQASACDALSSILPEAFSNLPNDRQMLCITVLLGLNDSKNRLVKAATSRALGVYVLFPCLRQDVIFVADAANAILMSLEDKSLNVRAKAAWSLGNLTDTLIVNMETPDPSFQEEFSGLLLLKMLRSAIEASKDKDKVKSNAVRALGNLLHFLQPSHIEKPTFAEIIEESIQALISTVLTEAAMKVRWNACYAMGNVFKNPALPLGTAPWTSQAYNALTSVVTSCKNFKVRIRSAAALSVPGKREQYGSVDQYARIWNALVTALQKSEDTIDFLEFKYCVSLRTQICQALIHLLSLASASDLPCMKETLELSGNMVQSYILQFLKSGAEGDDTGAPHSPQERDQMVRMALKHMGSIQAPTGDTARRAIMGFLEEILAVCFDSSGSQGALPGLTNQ
UniProt P0C0S5, whole entry, looked up: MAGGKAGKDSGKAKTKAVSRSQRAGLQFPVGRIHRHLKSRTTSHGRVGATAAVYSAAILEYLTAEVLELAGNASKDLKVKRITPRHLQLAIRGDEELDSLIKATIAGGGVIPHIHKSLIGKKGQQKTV
UniProt Q969Y2: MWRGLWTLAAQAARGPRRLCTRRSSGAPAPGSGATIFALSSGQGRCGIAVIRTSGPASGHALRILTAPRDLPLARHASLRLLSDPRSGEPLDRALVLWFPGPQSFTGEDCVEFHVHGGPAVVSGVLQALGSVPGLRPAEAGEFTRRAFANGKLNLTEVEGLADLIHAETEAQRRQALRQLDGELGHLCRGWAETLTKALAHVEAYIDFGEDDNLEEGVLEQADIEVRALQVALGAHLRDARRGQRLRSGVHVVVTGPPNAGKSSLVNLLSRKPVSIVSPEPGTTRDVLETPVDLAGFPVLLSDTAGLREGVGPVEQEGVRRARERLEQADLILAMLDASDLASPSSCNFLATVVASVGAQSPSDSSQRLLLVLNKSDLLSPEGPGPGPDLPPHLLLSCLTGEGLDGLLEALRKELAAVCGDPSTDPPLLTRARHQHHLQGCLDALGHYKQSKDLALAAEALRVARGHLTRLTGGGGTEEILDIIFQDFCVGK
UniProt P69892: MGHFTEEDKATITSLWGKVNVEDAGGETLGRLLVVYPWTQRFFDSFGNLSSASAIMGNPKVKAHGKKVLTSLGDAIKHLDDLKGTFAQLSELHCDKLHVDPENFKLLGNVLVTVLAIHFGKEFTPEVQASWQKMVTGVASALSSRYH
UniProt P28161: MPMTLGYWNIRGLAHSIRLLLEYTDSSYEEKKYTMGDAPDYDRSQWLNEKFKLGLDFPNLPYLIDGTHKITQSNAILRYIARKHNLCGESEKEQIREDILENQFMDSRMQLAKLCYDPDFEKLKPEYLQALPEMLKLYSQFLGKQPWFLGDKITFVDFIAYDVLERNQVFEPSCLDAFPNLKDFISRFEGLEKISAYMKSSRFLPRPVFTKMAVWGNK
UniProt Q9H0R4: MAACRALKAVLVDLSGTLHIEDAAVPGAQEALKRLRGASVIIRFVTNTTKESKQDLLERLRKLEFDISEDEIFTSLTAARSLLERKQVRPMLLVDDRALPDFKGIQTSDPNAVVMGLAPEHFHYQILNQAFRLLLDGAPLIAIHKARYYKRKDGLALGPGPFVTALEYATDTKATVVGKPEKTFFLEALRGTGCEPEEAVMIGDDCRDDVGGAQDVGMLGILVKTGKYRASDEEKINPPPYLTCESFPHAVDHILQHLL

Experiments:
Assay in all cases: log2 fold change, soluble protein after heating vs DMSO (PISA); higher = thermal stabilisation; K562 cells, 10 uM, 30 min; active = over 0.2 and 3.5 SD of the protein, either way, in both replicates (recomputed)
erlotinib = compound: C#Cc1cccc(Nc2ncnc3cc(OCCOC)c(OCCOC)cc23)c1 [erlotinib]
Method in brief: (§1)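 Values are thermal stability changes relative to control samples and are taken from duplicates. They are stated as log2 fold changes. Before quantification by TMTpro 16plex LC-MS/MS with equalised channel sums, K562 cells at 2×10^6 cells/mL were treated with 10 μM compound for 30 min, heated in aliquots for 3 min across 48°C-58°C, pooled, extracted in PBS with 0.5% NP-40 at 4°C, and centrifuged at 21,000xg for 90 min to give the soluble supernatant.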

[1] = compound: C/C(=N\NC(=O)C1=CC(=CC=C1)S(=O)(=O)N2CCOCC2)/C3=C(C=CC(=C3)Cl)O
Method in brief: as §1

[2] = compound: C1=CC(=C(C=C1Cl)C2=NC3=NC=CN=C3C(=N2)NC4=CC=NC=C4)F
Method in brief: as §1

[3] = compound: C1=CC(=CC=C1C2=NC3=C(N2)C=C(C=C3)C(=O)N)OC4=CC=C(C=C4)Cl
Method in brief: as §1

[4] = compound: C1=CC2=C(C=CC(=C2)/C=C\3/C(=O)NC(=NCC4=CC=CS4)S3)N=C1
Method in brief: as §1

[5] = compound: C1=CC2=NC=CN=C2C=C1/C=C/3\C(=O)NC(=O)S3
Method in brief: as §1

[6] = compound: C1=CC=C(C=C1)C2=NC(=C(N2)C3=CC=NC=C3)C4=CC(=C(C=C4)Cl)O
Method in brief: as §1

[7] = compound: C1=CC=C2C(=C1)C3=NNC4=CC=CC(=C43)C2=O
Method in brief: as §1

[8] = compound: C1CCN(C1)C(=O)NC2=CC=CC(=C2)NC3=NC=C(C(=N3)NCCC4=CN=CN4)Br
Method in brief: as §1

[9] = compound: C1CN(CCC1(CC2=CC=C(C=C2)Cl)N)C3=NC=NC4=C3C=CN4
Method in brief: as §1

Row | Target | log2 fold change (erlotinib) | log2 fold change [1] | log2 fold change [2] | log2 fold change [3] | log2 fold change [4] | log2 fold change [5] | log2 fold change [6] | log2 fold change [7] | log2 fold change [8] | log2 fold change [9]
1 | HEMGN (UniProt Q9BXL5) | inactive: -0.043 | inactive: -0.004 | inactive: -0.035 | inactive: 0.013 | inactive: 0.05 | inactive: 0.008 | inactive: -0.026 | inactive: -0.001 | inactive: -0.003 | inactive: -0.009
2 | HAX1 (UniProt O00165) | inactive: 0.07 | inactive: -0.006 | inactive: -0.024 | inactive: -0.014 | inactive: 0.087 | inactive: 0.008 | inactive: 0.06 | inactive: 0.156 | inactive: 0.027 | inactive: -0.078
3 | HERC1 (UniProt Q15751) | inactive: -0.018 | inactive: 0.025 | inactive: -0.005 | inactive: 0.04 | inactive: -0.024 | inactive: 0.006 | inactive: 0.026 | inactive: 0.026 | inactive: -0.024 | inactive: -0.042
4 | HADHA (UniProt P40939) | inactive: -0.085 | inactive: 0.122 | inactive: 0.044 | inactive: -0.18 | inactive: 0.042 | inactive: 0.02 | inactive: 0.07 | inactive: 0.271 | inactive: -0.214 | inactive: 0.171
5 | HDGFL3 (UniProt Q9Y3E1) | inactive: 0.013 | inactive: -0.016 | inactive: -0.01 | inactive: 0.095 | inactive: 0.042 | inactive: 0.007 | inactive: -0.081 | inactive: -0.006 | inactive: 0.072 | inactive: -0.023
6 | GUK1 isoform 2 (UniProt Q16774) | inactive: 0.009 | inactive: 0.289 | inactive: 0.092 | inactive: 0 | inactive: 0.004 | inactive: 0 | inactive: -0.02 | inactive: 0.021 | inactive: -0.03 | inactive: 0.066
7 | GSK3B isoform 2 (UniProt P49841) | inactive: -0.024 | inactive: -0.051 | inactive: 0.007 | inactive: 0.027 | inactive: 0.038 | inactive: -0.013 | inactive: 0.095 | inactive: 0.091 | inactive: 0.042 | inactive: 0.159
8 | GTPBP1 (UniProt O00178) | inactive: 0.002 | inactive: 0.025 | inactive: -0.04 | inactive: -0.032 | inactive: -0.018 | inactive: -0.019 | inactive: 0.042 | inactive: 0.017 | inactive: 0 | inactive: 0.016
9 | HDAC4 (UniProt P56524) | inactive: 0.133 | inactive: -0.146 | inactive: -0.067 | inactive: -0.151 | inactive: -0.042 | inactive: 0.023 | inactive: -0.116 | inactive: -0.02 | inactive: -0.207 | inactive: 0.173
10 | HAUS4 (UniProt Q9H6D7) | inactive: -0.112 | inactive: 0.097 | inactive: 0.041 | inactive: -0.095 | inactive: 0.018 | inactive: -0.065 | inactive: -0.085 | inactive: -0.087 | inactive: -0.001 | inactive: 0.001
11 | H1-2 (UniProt P16403) | inactive: -0.165 | inactive: -0.202 | inactive: -0.263 | inactive: 0.025 | inactive: -0.028 | inactive: -0.014 | inactive: 0 | inactive: 0.044 | inactive: -0.055 | inactive: -0.331
12 | GTF3C4 (UniProt Q9UKN8) | inactive: -0.016 | inactive: 0.065 | inactive: 0.026 | inactive: 0.003 | inactive: 0.025 | inactive: -0.005 | inactive: 0.003 | inactive: -0.022 | inactive: -0.026 | inactive: 0.027
13 | GSPT2 (UniProt Q8IYD1) | inactive: -0.004 | inactive: 0.085 | inactive: -0.276 | inactive: 0.003 | inactive: -0.086 | inactive: -0.004 | inactive: 0.021 | inactive: 0.062 | – | –
14 | HAGHL isoform 2 (UniProt Q6PII5) | inactive: 0.173 | inactive: 0.052 | inactive: 0.125 | inactive: 0.009 | inactive: -0.079 | inactive: 0.015 | inactive: 0.183 | inactive: -0.023 | – | –
15 | HEBP1 (UniProt Q9NRV9) | inactive: 0.05 | inactive: 0.049 | inactive: 0.037 | inactive: -0.03 | inactive: -0.004 | inactive: -0.096 | inactive: -0.012 | inactive: 0.352 | inactive: 0.041 | inactive: 0.017
16 | HDAC3 isoform 2 (UniProt O15379) | inactive: -0.068 | inactive: 0.084 | inactive: 0.055 | inactive: 0 | inactive: 0.041 | inactive: -0.075 | inactive: -0.071 | inactive: -0.031 | inactive: -0.046 | inactive: 0.014
17 | H1FX (UniProt Q92522) | inactive: -0.285 | inactive: -0.189 | inactive: -0.379 | inactive: 0.016 | inactive: -0.12 | inactive: -0.012 | inactive: 0.033 | inactive: 0 | inactive: 0.076 | inactive: -0.101
18 | GYPC (UniProt P04921) | inactive: -0.158 | inactive: -0.19 | inactive: 0.064 | inactive: 0.13 | inactive: 0.11 | inactive: 0.03 | inactive: -0.288 | inactive: 0.069 | inactive: -0.093 | inactive: 0.056
19 | GUSB (UniProt P08236) | inactive: 0.09 | inactive: -0.099 | inactive: -0.063 | inactive: 0.165 | inactive: -0.095 | inactive: 0.032 | inactive: 0.009 | inactive: 0.052 | inactive: 0.033 | inactive: -0.002
20 | H2AFX (UniProt P16104) | inactive: 0.05 | inactive: -0.243 | inactive: -0.54 | inactive: 0.072 | inactive: 0.014 | inactive: 0.274 | inactive: -0.087 | inactive: -0.049 | inactive: 0.231 | inactive: -0.319
21 | HAT1 (UniProt O14929) | inactive: -0.048 | inactive: 0.036 | inactive: 0.044 | inactive: 0.048 | inactive: -0.075 | inactive: -0.045 | inactive: 0.03 | inactive: 0.027 | inactive: -0.055 | inactive: 0.069
22 | GTF3C5 isoform 3 (UniProt Q9Y5Q8) | inactive: 0.085 | inactive: 0.293 | inactive: -0.078 | inactive: -0.049 | active: -0.413 | inactive: -0.056 | inactive: -0.089 | inactive: 0.079 | inactive: -0.067 | inactive: -0.038
23 | HEATR6 (UniProt Q6AI08) | inactive: 0.013 | inactive: 0 | inactive: 0.06 | inactive: 0.007 | inactive: 0.056 | inactive: -0.105 | inactive: 0.015 | inactive: 0.034 | inactive: 0.066 | inactive: -0.149
24 | H2AZ1 (UniProt P0C0S5) | inactive: -0.025 | inactive: -0.13 | inactive: -0.554 | inactive: -0.014 | inactive: -0.087 | inactive: 0.169 | inactive: -0.189 | inactive: 0.036 | inactive: 0.07 | inactive: 0.037
25 | HEATR1 (UniProt Q9H583) | inactive: -0.198 | inactive: -0.267 | inactive: -0.14 | inactive: 0.116 | inactive: 0.178 | inactive: 0.106 | inactive: -0.037 | inactive: 0.028 | inactive: 0.044 | inactive: -0.17
26 | GSTT1 (UniProt P30711) | inactive: 0.037 | inactive: -0.007 | inactive: 0.275 | inactive: 0.033 | inactive: 0.114 | inactive: 0.037 | inactive: -0.044 | inactive: -0.031 | inactive: 0.003 | inactive: -0.028
27 | GTPBP3 isoform 2 (UniProt Q969Y2) | inactive: 0.02 | inactive: -0.038 | inactive: 0.038 | inactive: 0.011 | inactive: 0.037 | inactive: 0.006 | inactive: -0.001 | inactive: -0.022 | inactive: -0.038 | inactive: 0.031
28 | HBG2 (UniProt P69892) | inactive: -0.042 | inactive: 0.088 | inactive: 0.198 | inactive: 0.045 | inactive: 0.014 | inactive: -0.062 | inactive: 0.13 | inactive: 0.053 | inactive: -0.055 | inactive: 0.053
29 | GSTM2 (UniProt P28161) | inactive: 0.061 | inactive: 0.019 | inactive: 0.02 | inactive: -0.045 | inactive: 0.036 | inactive: 0.067 | inactive: -0.054 | inactive: -0.004 | inactive: 0.008 | inactive: 0.034
30 | HDHD2 (UniProt Q9H0R4) | inactive: 0.029 | inactive: 0 | inactive: 0.133 | inactive: 0.009 | inactive: 0.013 | inactive: 0.046 | inactive: -0.015 | inactive: -0.018 | inactive: -0.009 | inactive: 0.037

Quoted from the listing:
HDAC3 isoform 2 (UniProt O15379) – log2 fold change [9]: inactive: 0.014
HAT1 (UniProt O14929) – log2 fold change [7]: inactive: 0.027
